Data published in PubChem BioAssay AID256 (DTP/NCI, 2004).
The list shows only some results of the screen, not a fair sample: it gathers tests that were run many times, whatever their T/C, doses with no T/C, and many T/C values between a quarter and a half above the control. Further doses and runs are listed elsewhere. T/C gives the treated animals as a percentage of the vehicle group. Some doses have a count of surviving animals in place of a T/C: the source files T/C as zero there, which appears to mark a toxic dose or a test without result, not a measured value. Some survivor counts are full or nearly so, which does not show that the dose was tolerated: survival well below the control is almost never listed, so the zero probably covers shortened survival too. Counts of survivors are from the toxicity check (mostly the fifth day) where no day follows; animals may have died later. Schedule codes are those of the source, read here as Q, the interval in days (D) or hours (H), X, the number of doses. Additions like (4×) count equal records among those shown. Some entries hold several experiments; the results are listed from low to high. Where survival is the endpoint, this PubChem deposit counts one and a half times the control or more as active, and values a quarter to a half above the control carry no call in these data; other NCI protocols may use other cut-offs. Some T/C values are followed by the survivors on the day toxicity was checked, most often the fifth; where none is given, no animal had died by that day.

System: CD2F1 mice, L1210 leukemia ip, survival T/C
Experiment: NCI In Vivo Anticancer Drug Screen. Data for tumor model L1210 Leukemia (intraperitoneal) in CD2F1 (CDF1) mice
Settings: higher T/C = longer survival
Procedure, shortened: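 Compound-dosed mice with transplantable tumor versus matched vehicle controls; endpoint ratio T/C reported.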

[1] = T/C endpoint: mean survival time, dose: 100.0 mg/kg/injection, schedule: Q04DX003 (ip), vehicle: saline with Tween-80
[2] = T/C endpoint: mean survival time, dose: 25.0 mg/kg/injection, schedule: Q01DX009 (ip), vehicle: saline
[3] = T/C endpoint: mean survival time, dose: 200.0 mg/kg/injection, schedule: Q04DX003 (ip), vehicle: saline with Tween-80
[4] = T/C endpoint: mean survival time, dose: 400.0 mg/kg/injection, schedule: Q04DX003 (ip), vehicle: saline with Tween-80
[5] = T/C endpoint: mean survival time, dose: 400.0 mg/kg/injection, schedule: Q01DX009 (ip), vehicle: saline with Tween-80
[6] = T/C endpoint: mean survival time, dose: 150.0 mg/kg/injection, schedule: Q01DX001 (ip), vehicle: saline
[7] = T/C endpoint: mean survival time, dose: 300.0 mg/kg/injection, schedule: Q01DX001 (ip), vehicle: saline

SMILES: CCCCNCCC(=O)c1ccc(Cl)cc1
- survivor count (T/C endpoint: mean survival time, dose: 100.0 mg/kg/injection, schedule: Q01DX009 (ip), vehicle: saline sonified): 1 of 6
- survivor count [1]: 2 of 6
- survivor count (T/C endpoint: mean survival time, dose: 200.0 mg/kg/injection, schedule: Q01DX009 (ip), vehicle: saline sonified): 0 of 6
- survivor count (T/C endpoint: mean survival time, dose: 400.0 mg/kg/injection, schedule: Q01DX009 (ip), vehicle: saline sonified): 0 of 6

SMILES: CS(C)=O.[Cl-].[Cl-].[NH-]CC(O)C[N-]CC(O)CN.[Pt+4] (configuration not stated)
- survivor count (T/C endpoint: median survival time, dose: 100.0 mg/kg/injection, schedule: Q04DX003 (ip), vehicle: saline): 6 of 6
- survivor count (T/C endpoint: median survival time, dose: 200.0 mg/kg/injection, schedule: Q04DX003 (ip), vehicle: saline): 3 of 6

SMILES: CCOC(=O)C(N)CSC(c1ccccc1)(c1ccccc1)c1ccccc1 (configuration not stated)
- T/C [2]: 130 % of control [5 of 6 alive]
- T/C (T/C endpoint: mean survival time, dose: 50.0 mg/kg/injection, schedule: Q01DX009 (ip), vehicle: saline): 136 % of control
- T/C (T/C endpoint: mean survival time, dose: 100.0 mg/kg/injection, schedule: Q01DX009 (ip), vehicle: saline): 127 % of control
- survivor count (T/C endpoint: mean survival time, dose: 200.0 mg/kg/injection, schedule: Q01DX009 (ip), vehicle: saline): 4 of 6
- survivor count (T/C endpoint: mean survival time, dose: 400.0 mg/kg/injection, schedule: Q01DX009 (ip), vehicle: saline): 1 of 6

SMILES: CCN(CC)CC[n+]1ccc2c(C)c3[nH]c4ccc(O)cc4c3c(C)c2c1
- T/C (T/C endpoint: mean survival time, dose: 1.56 mg/kg/injection, schedule: Q01DX009 (ip), vehicle: saline): 127 % of control
- T/C (T/C endpoint: mean survival time, dose: 1.56 mg/kg/injection, schedule: Q01DX009 (ip), vehicle: suspension in saline): 125 % of control
- T/C (T/C endpoint: mean survival time, dose: 3.12 mg/kg/injection, schedule: Q01DX009 (ip), vehicle: saline): 134 % of control [5 of 6 alive]
- T/C (T/C endpoint: mean survival time, dose: 3.12 mg/kg/injection, schedule: Q01DX009 (ip), vehicle: suspension in saline): 129 % of control
- T/C (T/C endpoint: mean survival time, dose: 6.25 mg/kg/injection, schedule: Q01DX009 (ip), vehicle: saline): 138 % of control
- T/C (T/C endpoint: mean survival time, dose: 6.25 mg/kg/injection, schedule: Q01DX009 (ip), vehicle: suspension in saline): 138 % of control
- T/C (T/C endpoint: mean survival time, dose: 12.5 mg/kg/injection, schedule: Q01DX009 (ip), vehicle: saline): 135 % of control
- T/C [2]: 143 % of control
- survivor count (T/C endpoint: mean survival time, dose: 50.0 mg/kg/injection, schedule: Q01DX009 (ip), vehicle: suspension in saline): 4 of 6

SMILES: CC(NCCN(C)C)C1CCC2C3CCC4CC(O)CCC4(C)C3CCC12C (configuration not stated)
- survivor count [1]: 4 of 6
- survivor count [3]: 0 of 6
- survivor count [4]: 0 of 6

SMILES: C[S+](C)CCC(N)C(=O)O (configuration not stated) (tested in a mixture with another compound)
- survivor count (T/C endpoint: median survival time, dose: 200.0 mg/kg/injection, schedule: Q04DX002 (ip), vehicle: saline): 1 of 3 (2×)
- survivor count (T/C endpoint: median survival time, dose: 400.0 mg/kg/injection, schedule: Q04DX002 (ip), vehicle: saline): 0 of 3

SMILES: CN(C)C(C)(C)CC(C)(C)C
- survivor count [3]: 0 of 3
- survivor count [4]: 0 of 3

SMILES: CC1=NC(C#N)=C(C#N)N=C(C)C1
- survivor count (T/C endpoint: mean survival time, dose: 100.0 mg/kg/injection, schedule: Q04DX003 (ip), vehicle: Klucel (hydroxypropylcellulose) (HPC)): 0 of 6
- survivor count (T/C endpoint: mean survival time, dose: 200.0 mg/kg/injection, schedule: Q04DX003 (ip), vehicle: Klucel (hydroxypropylcellulose) (HPC)): 0 of 6
- survivor count (T/C endpoint: mean survival time, dose: 400.0 mg/kg/injection, schedule: Q04DX003 (ip), vehicle: Klucel (hydroxypropylcellulose) (HPC)): 0 of 6

SMILES: CCCCCCOC(CN(C)C)C(Cl)(Cl)Cl (configuration not stated)
- survivor count [5]: 0 of 6

SMILES: NC(CSS(=O)(=O)O)=NCCc1cccs1
- survivor count (T/C endpoint: mean survival time, dose: 50.0 mg/kg/injection, schedule: Q04DX002 (ip), vehicle: saline with Tween-80): 0 of 3

SMILES: N/C(=N/O)NO
- T/C (T/C endpoint: median survival time, dose: 400.0 mg/kg/injection, schedule: Q01DX005 (ip), vehicle: saline): 131 [5 of 6 alive] and 142 % of control
- survivor count (T/C endpoint: median survival time, dose: 800.0 mg/kg/injection, schedule: Q01DX005 (ip), vehicle: saline): 0 of 6

SMILES: CCCCCCCCCCCCCCCCCC(=O)NCC[N+](C)(C)C
- survivor count (T/C endpoint: mean survival time, dose: 75.0 mg/kg/injection, schedule: Q01DX001 (ip), vehicle: saline): 2 of 6
- survivor count [6]: 0 of 6
- survivor count [7]: 0 of 6

SMILES: CC(C)(C=O)CNC(C)(C)C
- survivor count [4]: 4 of 6

SMILES: NC(=O)c1c[n+](Cc2ccccc2)ccn1
- survivor count [6]: 2 of 6
- survivor count [7]: 0 of 6

SMILES: CC1=C(Br)C(=O)C(C(O)(C(F)(F)F)C(F)(F)F)C(C)(C)C1 (configuration not stated)
- survivor count [4]: 4 of 6

SMILES: CC(C)CNC(=O)c1ccc(N=NN(C)Cc2ccncc2)cc1
- survivor count (T/C endpoint: mean survival time, dose: 200.0 mg/kg/injection, schedule: Q01DX009 (ip), vehicle: saline with Tween-80): 3 of 6
- survivor count [4]: 0 of 6

SMILES: O=C1C=CC(=Nc2ccc(Cl)cc2)O1
- survivor count [3]: 2 of 6

SMILES: CN(Cc1cnc2nc(N)nc(N)c2n1)c1ccc(C(=O)NC(CCC(=O)NC(CCC(=O)O)C(=O)O)C(=O)O)cc1 (configuration not stated)
- T/C (T/C endpoint: mean survival time, dose: 1.25 mg/kg/injection, schedule: Q01DX009 (ip), vehicle: sodium bicarbonate): 148 % of control
- survivor count (T/C endpoint: mean survival time, dose: 20.0 mg/kg/injection, schedule: Q01DX009 (ip), vehicle: sodium bicarbonate): 5 of 6
- survivor count (T/C endpoint: mean survival time, dose: 40.0 mg/kg/injection, schedule: Q01DX009 (ip), vehicle: sodium bicarbonate): 3 of 6

SMILES: Cc1cc(NC(C)CN(C)C)nc(/N=C(\N)Nc2ccc(Cl)c(Cl)c2)n1 (configuration not stated)
- survivor count [3]: 2 of 6
- survivor count [4]: 0 of 6

SMILES: C=CCCCCCCCCC(=O)N(CC#N)CC(C)C
- survivor count [5]: 1 of 6

SMILES: CCCCC(=O)N(c1ccc(Nc2c3ccccc3nc3cc([N+](=O)[O-])ccc23)cc1)S(C)(=O)=O
- T/C (T/C endpoint: mean survival time, dose: 3.1 mg/kg/injection, schedule: Q04DX003 (ip), vehicle: Klucel (hydroxypropylcellulose) (HPC)): 132 % of control
- T/C (T/C endpoint: mean survival time, dose: 4.8 mg/kg/injection, schedule: Q04DX003 (ip), vehicle: acetone): 131 % of control
- T/C (T/C endpoint: mean survival time, dose: 7.2 mg/kg/injection, schedule: Q04DX003 (ip), vehicle: acetone): 131 % of control
- survivor count (T/C endpoint: mean survival time, dose: 50.0 mg/kg/injection, schedule: Q01DX009 (ip), vehicle: saline with Tween-80): 6 of 6
- T/C (T/C endpoint: mean survival time, dose: 67.0 mg/kg/injection, schedule: Q04DX003 (ip), vehicle: saline with Tween-80): 125 % of control
- survivor count (T/C endpoint: mean survival time, dose: 100.0 mg/kg/injection, schedule: Q01DX009 (ip), vehicle: saline with Tween-80): 6 of 6
- survivor count (T/C endpoint: mean survival time, dose: 400.0 mg/kg/injection, schedule: Q04DX003 (ip), vehicle: saline): 6 of 6

SMILES: OCC1OC(n2cc(I)c3c2ncn2nnnc32)C(O)C1O (configuration not stated)
- survivor count (T/C endpoint: mean survival time, dose: 6.25 mg/kg/injection, schedule: Q01DX005 (ip), vehicle: water): 3 of 3
- survivor count (T/C endpoint: mean survival time, dose: 12.5 mg/kg/injection, schedule: Q01DX005 (ip), vehicle: water): 3 of 3
- survivor count (T/C endpoint: mean survival time, dose: 50.0 mg/kg/injection, schedule: Q01DX005 (ip), vehicle: water): 0 of 3
- survivor count (T/C endpoint: mean survival time, dose: 100.0 mg/kg/injection, schedule: Q01DX005 (ip), vehicle: water): 0 of 3
- survivor count (T/C endpoint: mean survival time, dose: 200.0 mg/kg/injection, schedule: Q01DX005 (ip), vehicle: water): 0 of 3

SMILES: CN1C(=O)CC(c2ccc(NC(=O)CI)cc2)C1=O (configuration not stated)
- survivor count (T/C endpoint: mean survival time, dose: 25.0 mg/kg/injection, schedule: Q04DX002 (ip), vehicle: saline with Tween-80): 2 of 3

SMILES: COc1ccccc1C1=CCCCCC1
- survivor count [5]: 6 of 6

SMILES: Clc1ccc(N=C/C=C/c2ccccc2)cc1
- survivor count (T/C endpoint: mean survival time, dose: 200.0 mg/kg/injection, schedule: Q04DX003 (ip), vehicle: other): 6 of 6

SMILES: COC12[C@@H]3N[C@@H]3CN1C1=C(C(=O)C(N(C)CCN(C)C)=C(C)C1=O)[C@@H]2COC(N)=O (some centres not stated)
- T/C (T/C endpoint: median survival time, dose: 24.0 mg/kg/injection, schedule: Q01DX001 (ip), vehicle: saline): 129 % of control
- survivor count (T/C endpoint: median survival time, dose: 48.0 mg/kg/injection, schedule: Q01DX001 (ip), vehicle: saline): 2 of 6 and 3 of 6

SMILES: CC(C)NCc1ccc2c(c1)OCO2
- survivor count [7]: 1 of 6

SMILES: CCCCN=C(N)CCl
- survivor count (T/C endpoint: mean survival time, dose: 200.0 mg/kg/injection, schedule: Q04DX002 (ip), vehicle: saline): 0 of 3
- survivor count (T/C endpoint: mean survival time, dose: 400.0 mg/kg/injection, schedule: Q04DX002 (ip), vehicle: saline): 0 of 3

SMILES: O=C1CCCN1.O=C1CCCN1.[Br][Co][Br]
- T/C (T/C endpoint: mean survival time, dose: 150.0 mg/kg/injection, schedule: Q01DX009 (ip), vehicle: saline): 128 % of control
- survivor count (T/C endpoint: mean survival time, dose: 300.0 mg/kg/injection, schedule: Q01DX009 (ip), vehicle: saline): 0 of 6
